According to PMC9302439:

These sequences were tested on HbERF6 (Hordeum brevisubulatum) (assay: EMSA). Conditions: LightShift EMSA kit 1x binding buffer, 20 ul, 1 ul poly(dI-dC), 4 ug protein, room temperature, 20 min; salt and pH not stated; recombinant protein; protein details: His (pET30a); label: 3' biotin.
“AACGGAACCACTTCTCAACGGAACCACTTCTCAACGGAACCACTTCTC (double strand) [mutant GCC-box-2 probe]”: no binding. “AACGGAGCCGCCTCTCAACGGAGCCGCCTCTCAACGGAGCCGCCTCTC (double strand) [pHbCIPK2 GCC-box-2 probe]”: binds. “AGGGTAACCACTCCAGAGGGTAACCACTCCAGAGGGTAACCACTCCAG (double strand) [mutant GCC-box-1 probe]”: no binding. “AGGGTAGCCGCCCCAGAGGGTAGCCGCCCCAGAGGGTAGCCGCCCCAG (double strand) [pHbCIPK2 GCC-box-1 probe]”: binds.

The exact form of at least one protein or probe is not confirmed. Negatives hold for the conditions tested.
